# Laboratory results taken from PubChem BioAssay AID493014 (National Center for Advancing Translational Sciences (NCATS), 2011).
# The other results are listed elsewhere or left out. These are further read-outs of the screen, such as a control signal, another cell line or another target. No call is given for them. Most of these compounds were active or inconclusive in the main read-out, so they are no random draw. Words in brackets tell the shape of the fitted curve; partial curves, single points and poor fits give uncertain potencies.
# Test: qHTS Assay to Find Inhibitors of Chronic Active B-Cell Receptor Signaling
# Conditions: ABC-DLBCL IkBa-CBG/CBR reporter, luminescence ratio (green luciferase fused to IkBa over red control in TMD8 lymphoma cells), 4 h
# Summary of the method: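 Compounds up to 46 uM were incubated four hours with TMD8 cells whose green CBG68 luciferase is fused to IkappaBalpha; red CBR luminescence normalised the signal, and concentration-effect curves were fitted to fusion, red and ratio data.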
# [1] = measured here: CBR red luminescence, cell number
# [2] = measured here: IkBa-CBG green luminescence
SMILES,AC50 [1],AC50 [2]
C/C(=N/NC(N)=S)c1cc2ccc(O)cc2oc1=O,"6.31 µM [falling, single point]",
COc1ccc(-c2noc(CCC(=O)Nc3nc4ccccc4s3)n2)cc1,"32.6 µM [falling, single point]",
Cc1cc(NC(=O)CSc2cn(CCNC(=O)c3ccccc3)c3ccccc23)no1,"0.58 µM [falling, partial curve, poor fit]",
CCn1c(=O)c([N+](=O)[O-])c(NCc2ccco2)c2ccccc21,"7.08 µM [falling, partial curve, poor fit]",
CC(=O)N1CCC(N(CCN2CCOCC2)C(=S)Nc2cccc(C)c2C)CC1,"20.6 µM [falling, partial curve]",
O=C(NNc1cccc(Cl)n1)C(F)(F)F,"35.5 µM [falling, single point]",
Cc1ccc(C(C[N+](=O)[O-])c2c(-c3ccccc3O)[nH][nH]c2=O)cc1 (centres undefined),"14.6 µM [falling, partial curve]","29.1 µM [falling, single point]"
COc1ccc2nc(NC(=O)[C@@H]3CCCN3C(=O)c3cccs3)sc2c1,,"16.4 µM [rising, partial curve, poor fit]"
CC(C)Cc1ccc(C(C)C(=N)N)cc1 (centres undefined),"14.1 µM [falling, partial curve, poor fit]",
CCOC(=O)CNC(=O)C1(/C=C/c2ccccc2)CC(=O)N1c1ccc(C)cc1 (centres undefined),"35.5 µM [rising, single point]",
CCOc1ccc(C(=O)CCC(=O)N2CCN(c3ncccn3)CC2)cc1,"7.08 µM [rising, full curve]",
O=C(CSC1=NCCS1)Nc1ccnc2ccccc12,"7.31 µM [falling, partial curve, poor fit]",
COc1ccc(CCNC(=O)C2CCCN(Cc3nc(-c4ccccc4C)oc3C)C2)cc1OC (centres undefined),"35.5 µM [falling, single point]",
CC(C)C(=O)N1CCC2(CC1)Oc1ccc(F)cc1C(=O)C21CC(c2ccccc2)=NO1 (centres undefined),"35.5 µM [falling, single point]",
Cc1ccc[n+](/C(C(=S)NCc2ccco2)=C(/[O-])c2ccccc2Cl)c1,"0.58 µM [rising, partial curve]",
COc1ccc(CCNC(=O)c2oc(=O)c3ccccc3c2-c2ccccc2)cc1OC,"3.55 µM [rising, full curve]",
C1=C(N2CCOCC2)/C(=C/c2nc3ccccc3[nH]2)CC1,"8.91 µM [falling, partial curve]",
O=C(Nc1ccc(Cl)c(Cl)c1)Nc1ccc(N2CCCC2)c(S(=O)(=O)Nc2ccccc2Cl)c1,"23.1 µM [falling, single point]",
Cc1ocnc1C(=O)Nc1ccc(Cl)cc1,"11.2 µM [falling, single point]",
COc1ccc(CCNC(=O)c2cc3c(=O)n4ccccc4nc3n(C3CCCCC3)c2=N)cc1OC,"5.01 µM [rising, partial curve, poor fit]",
O=C(CSc1nncc2ccccc12)Nc1ccccc1,"31.6 µM [falling, single point]",
Cc1nn(-c2ccccc2)c(Cl)c1C(=O)OCC(=O)NCCc1ccc(S(N)(=O)=O)cc1,"29.1 µM [falling, single point]",

# Grouped by structure, the compounds so far with an NH in an aromatic ring.
SMILES,AC50 [1],AC50 [2]
Cc1ccc(C(C[N+](=O)[O-])c2c(-c3ccccc3O)[nH][nH]c2=O)cc1 (centres undefined),"14.6 µM [falling, partial curve]","29.1 µM [falling, single point]"
C1=C(N2CCOCC2)/C(=C/c2nc3ccccc3[nH]2)CC1,"8.91 µM [falling, partial curve]",

# The list goes on:

SMILES,AC50 [1],AC50 [2]
O=C(COc1cc(Cl)c(Cl)cc1Cl)Nc1cccc(O)c1,"0.891 µM [rising, full curve, poor fit]",
Cc1ccc(-c2c(C#N)c(N)nc3c2CCCCC3)cc1,"6.51 µM [rising, single point]",
Cc1ccc(S(=O)(=O)Nc2nc(C)cc(-n3nc(C)cc3C)n2)cc1,"23.1 µM [falling, single point]",
COc1ccc(-c2cc3n(n2)CCc2nc4ccccc4n2-3)cc1,"2.06 µM [falling, partial curve]",
C=CCOc1c(Cl)cc(CNCCC)cc1Cl,"18.4 µM [rising, single point]",
Cc1ccc(C(=O)/C=C/C(=O)O)cc1,"29.1 µM [falling, single point]","25.9 µM [rising, single point]"
COc1ccc(N/C=C/C(=O)c2ccccc2)cc1,"11.2 µM [falling, partial curve, poor fit]",
CC(C)CCN1CCN(CC(c2ccccc2)c2ccccc2)CC1CCO (centres undefined),"3.55 µM [falling, full curve, poor fit]",
Cc1ccc(NC(=S)NCc2ccccc2)cc1S(=O)(=O)N1CCCCC1,"12.6 µM [falling, partial curve]","35.5 µM [rising, partial curve, poor fit]"
CC1(C(=O)OCC(=O)Nc2nnc(-c3ccccc3)o2)CC1(Cl)Cl (centres undefined),"32.6 µM [falling, single point]",
CCCc1ccc(OCCNC(=O)c2ccco2)cc1,"8.91 µM [rising, partial curve, poor fit]",
COc1ccccc1N(C(=O)c1snc(C(N)=O)c1N)C(C(=O)NCCC(C)C)c1ccco1 (centres undefined),"22.4 µM [falling, single point]",
O=C(CN1CCCN(S(=O)(=O)c2ccc(Br)cc2)CC1)Nc1ccc2c(c1)OCO2,"3.66 µM [falling, single point]",
COc1ccccc1NC(=O)Nc1nnc(-c2ccco2)s1,"12.6 µM [falling, single point]",
CSc1nsc(SC)c1C(=O)OCC(F)(F)F,"2 µM [falling, full curve, poor fit]",
COc1cc(O)c2c(=O)c3c(OC)c(O)ccc3oc2c1,"8.2 µM [rising, partial curve]","0.00411 µM [rising, full curve, poor fit]"
O=C1CNC(=S)N1Cc1ccccc1,"0.141 µM [rising, full curve, poor fit]",
CC(C)CN(C(=O)CSc1nc2ccccc2c(=O)[nH]1)c1c(N)n(CC(C)C)c(=O)[nH]c1=O,"16.4 µM [rising, partial curve, poor fit]",
CC1CCCN(C(=O)COC(=O)c2cc(Br)ccc2O)C1 (centres undefined),"10.3 µM [falling, partial curve, poor fit]",
Cc1ccccc1C(=O)O/N=C(\N)c1ccccc1,"15.8 µM [falling, single point]",
Cc1cccc(NC(=O)c2cc3ccccc3o2)c1,"2 µM [falling, full curve]",
CCOc1ccc2nc(-c3ccc(OC)c(OC)c3)cc(C(=O)O)c2c1,"0.146 µM [falling, full curve]",

SMILES,AC50 [1],AC50 [2]
CSc1nnc(C)c(=O)n1COC(=O)c1ccc(S(=O)(=O)N(C)C)cc1,"16.4 µM [falling, single point]",
Cc1ccc(OCCn2cnc3c(N)ncnc32)cc1,"0.631 µM [falling, partial curve, poor fit]",
O=C(Nc1ccc(Nc2ccccc2)cc1)c1ccc(Cl)c([N+](=O)[O-])c1,"15.8 µM [falling, partial curve, poor fit]",
O=C(COc1ccccc1[N+](=O)[O-])Nc1cc(Cl)ccc1C(=O)O,"10 µM [falling, partial curve, poor fit]",
CCOc1ccc(Nc2cc(C)c3ccccc3n2)cc1,"5.01 µM [rising, partial curve]",
CCCC(CCC)C(=O)Nc1ccc2c(c1)N(C(=O)CN1CCN(C)CC1)c1ccccc1CC2,"6.31 µM [falling, single point]",
COC(=O)c1ccc2nc(Nc3nc4c(F)cc(F)cc4s3)sc2c1,"0.0651 µM [falling, full curve]","1.03 µM [rising, full curve, poor fit]"
COc1ccc2c(c1)Cc1sc(NC(=O)c3ccco3)nc1-2,"8.91 µM [falling, partial curve]",
O=C1C2Sc3[nH]c(=O)sc3C(c3ccccc3)C2C(=O)N1c1ccccc1 (centres undefined),"35.5 µM [falling, partial curve, poor fit]",
Cc1cc(Cl)ccc1OC(C)C(=O)NN1C(=O)c2ccccc2C1=O (centres undefined),"2.82 µM [falling, partial curve]",
O=C1N/C(=N\N=C\c2cccs2)SC1Cc1ccc(Cl)cc1 (centres undefined),"2.06 µM [falling, full curve]",
Cc1cc(NC(=O)Cc2cn3ccsc3n2)n(-c2ccccc2)n1,"32.6 µM [falling, single point]",
FC(F)(F)c1ccc2c(c1)[nH]c(=S)n2C1CC1,"12.6 µM [rising, single point]",
Cc1cc(C)n(CC(O)Cn2c(C)c(C)c3ccccc32)n1 (centres undefined),"32.6 µM [rising, partial curve, poor fit]",
COc1ccc(CCCc2nc3ccccc3[nH]2)cc1,"1.12 µM [rising, partial curve, poor fit]",
NCCN1C(=O)S/C(=C\c2ccc3c(c2)OCO3)C1=O,"3.55 µM [falling, full curve]",
Cc1ccn2c(NCc3ccc4c(c3)OCO4)c(-c3ccc(O)cc3)nc2c1,"0.103 µM [falling, full curve, poor fit]",
C=CCN(C(=O)c1cccc(S(=O)(=O)N2CCN(C)CC2)c1)c1nc(-c2ccccc2)cs1,"3.66 µM [rising, partial curve, poor fit]",
Cc1ccsc1C(=O)NCCc1c[nH]c2ccccc12,"7.08 µM [falling, partial curve]",
Clc1nc(CN2CCCCC2)nc2sc3c(c12)CCCC3,"35.5 µM [falling, partial curve, poor fit]",
